# Measured values as given in the supplement of paper PMC8728848.
# Some of the results follow.
# B1: AFL6 (Aspergillus fumigatus), Q4WKJ1 (protein)
# chain: MSFHLTAEDIRIEDGHRLVARLRNADGDLQDASIDLNTCLGNDNGHFQWDGVDFSHSAQDVHFAIEGGGQVPVLRAQLANQDGEFQDADVNLSERIENINGEFVFH
# Columns and labels:
# Test in all cases: glycan array binding signal (z-score within array); higher = stronger binding
# Details in all cases: glycan notation: IUPAC condensed, linker removed
# [1] = molecular target: Gal(a1-6)Glc
# Method in brief: (§1)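 Glycan array data came from 3228 arrays in the Consortium for Functional Glycomics database, and only arrays with an available protein sequence were kept. Glycan names were put into IUPAC-condensed notation, and columns mapping to the same glycan were averaged. The binding signal is a within-array Z-score, averaged across arrays of one protein sequence run at different concentrations or buffers and across linkers. A negative Z-score can be read as non-binding.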
# [2] = molecular target: Gal(b1-2)Gal
# Method in brief: as §1
# [3] = molecular target: Gal(b1-3)Gal
# Method in brief: as §1
# [4] = molecular target: Gal(b1-3)Gal(b1-4)GlcNAc
# Method in brief: as §1
# [5] = molecular target: Gal(b1-3)GalNAc
# Method in brief: as §1
# [6] = molecular target: Gal(b1-3)GalNAc(a1-3)[Fuc(a1-2)]Gal(b1-4)Glc
# Method in brief: as §1
# [7] = molecular target: Gal(b1-3)GalNAc(a1-3)[Fuc(a1-2)]Gal(b1-4)GlcNAc
# Method in brief: as §1
# [8] = molecular target: Gal(b1-3)GalNAc(b1-3)Gal
# Method in brief: as §1
# [9] = molecular target: Gal(b1-3)GalNAc(b1-3)Gal(a1-4)Gal(b1-4)Glc
# Method in brief: as §1
# [10] = molecular target: Gal(b1-3)GalNAc(b1-4)Gal(b1-4)Glc
# Method in brief: as §1
# [11] = molecular target: Gal(b1-3)GalNAc(b1-4)[Neu5Ac(a2-3)]Gal(b1-4)Glc
# Method in brief: as §1
# [12] = molecular target: Gal(b1-3)GlcNAc
# Method in brief: as §1
# [13] = molecular target: Gal(b1-3)GlcNAc(a1-3)Gal(b1-4)GlcNAc
# Method in brief: as §1
# [14] = molecular target: Gal(b1-3)GlcNAc(a1-6)Gal(b1-4)GlcNAc
# Method in brief: as §1
# [15] = molecular target: Gal(b1-3)GlcNAc(b1-2)Man
# Method in brief: as §1
# [16] = molecular target: Gal(b1-3)GlcNAc(b1-2)Man(a1-3)[Gal(b1-3)GlcNAc(b1-2)Man(a1-6)]Man(b1-4)GlcNAc(b1-4)GlcNAc
# Method in brief: as §1
# [17] = molecular target: Gal(b1-3)GlcNAc(b1-2)Man(a1-3)[Gal(b1-3)GlcNAc(b1-2)Man(a1-6)]Man(b1-4)GlcNAc(b1-4)[Fuc(a1-6)]GlcNAc
# Method in brief: as §1
# [18] = molecular target: Gal(b1-3)GlcNAc(b1-2)Man(a1-3)[GlcNAc(b1-4)][Gal(b1-3)GlcNAc(b1-2)Man(a1-6)]Man(b1-4)GlcNAc(b1-4)GlcNAc
# Method in brief: as §1
# [19] = molecular target: Gal(b1-3)GlcNAc(b1-2)[Gal(b1-3)GlcNAc(b1-6)]Man(a1-6)[Gal(b1-3)GlcNAc(b1-2)Man(a1-3)]Man(b1-4)GlcNAc(b1-4)GlcNAc
# Method in brief: as §1
# [20] = molecular target: Gal(b1-3)GlcNAc(b1-3)Gal(b1-3)GlcNAc
# Method in brief: as §1
# [21] = molecular target: Gal(b1-3)GlcNAc(b1-3)Gal(b1-4)Glc
# Method in brief: as §1
# [22] = molecular target: Gal(b1-3)GlcNAc(b1-3)Gal(b1-4)GlcNAc
# Method in brief: as §1
# [23] = molecular target: Gal(b1-3)GlcNAc(b1-3)Gal(b1-4)GlcNAc(b1-2)Man(a1-3)[Gal(b1-3)GlcNAc(b1-3)Gal(b1-4)GlcNAc(b1-2)Man(a1-6)]Man(b1-4)GlcNAc(b1-4)GlcNAc
# Method in brief: as §1
# [24] = molecular target: Gal(b1-3)GlcNAc(b1-3)Gal(b1-4)GlcNAc(b1-2)[Gal(b1-3)GlcNAc(b1-3)Gal(b1-4)GlcNAc(b1-6)]Man(a1-6)[Gal(b1-3)GlcNAc(b1-3)Gal(b1-4)GlcNAc(b1-2)Man(a1-3)]Man(b1-4)GlcNAc(b1-4)[Fuc(a1-6)]GlcNAc
# Method in brief: as §1
# [25] = molecular target: Gal(b1-3)GlcNAc(b1-3)Gal(b1-4)GlcNAc(b1-3)Gal(b1-4)GlcNAc(b1-2)[Gal(b1-3)GlcNAc(b1-3)Gal(b1-4)GlcNAc(b1-3)Gal(b1-4)GlcNAc(b1-6)]Man(a1-6)[Gal(b1-3)GlcNAc(b1-3)Gal(b1-4)GlcNAc(b1-3)Gal(b1-4)GlcNAc(b1-2)Man(a1-3)]Man(b1-4)GlcNAc(b1-4)[Fuc(a1-6)]GlcNAc
# Method in brief: as §1
# [26] = molecular target: Gal(b1-3)GlcNAc(b1-3)Gal(b1-4)GlcNAc(b1-6)[Gal(b1-3)GlcNAc(b1-3)]Gal(b1-4)Glc
# Method in brief: as §1
# [27] = molecular target: Gal(b1-3)GlcNAc(b1-3)Gal(b1-4)[Fuc(a1-3)]GlcNAc
# Method in brief: as §1
# [28] = molecular target: Gal(b1-3)GlcNAc(b1-3)Gal(b1-4)[Fuc(a1-3)]GlcNAc(b1-6)[Gal(b1-3)GlcNAc(b1-3)]Gal(b1-4)Glc
# Method in brief: as §1
# [29] = molecular target: Gal(b1-3)GlcNAc(b1-3)GalNAc
# Method in brief: as §1
# [30] = molecular target: Gal(b1-3)GlcNAc(b1-6)Gal(b1-4)GlcNAc
# Method in brief: as §1
# [31] = molecular target: Gal(b1-3)GlcNAc(b1-6)GalNAc
# Method in brief: as §1
# [32] = molecular target: Gal(b1-3)GlcNAc(b1-6)[Gal(b1-3)]GalNAc
# Method in brief: as §1
# [33] = molecular target: Gal(b1-3)GlcNAc6S
# Method in brief: as §1
# [34] = molecular target: Gal(b1-3)[Fuc(a1-4)]GlcNAc
# Method in brief: as §1
# [35] = molecular target: Gal(b1-3)[Fuc(a1-4)]GlcNAc(b1-2)Man
# Method in brief: as §1
# [36] = molecular target: Gal(b1-3)[Fuc(a1-4)]GlcNAc(b1-2)Man(a1-3)[Gal(b1-3)[Fuc(a1-4)]GlcNAc(b1-2)Man(a1-6)]Man(b1-4)GlcNAc(b1-4)[Fuc(a1-6)]GlcNAc
# Method in brief: as §1
# [37] = molecular target: Gal(b1-3)[Fuc(a1-4)]GlcNAc(b1-3)Gal(b1-3)[Fuc(a1-4)]GlcNAc
# Method in brief: as §1
# [38] = molecular target: Gal(b1-3)[Fuc(a1-4)]GlcNAc(b1-3)Gal(b1-4)[Fuc(a1-3)]GlcNAc
# Method in brief: as §1
# [39] = molecular target: Gal(b1-3)[Fuc(a1-4)]GlcNAc(b1-6)GalNAc
# Method in brief: as §1
# [40] = molecular target: Gal(b1-3)[GlcNAc(b1-6)]GalNAc
# Method in brief: as §1
# [41] = molecular target: Gal(b1-3)[Neu5Ac(a2-6)]GalNAc
# Method in brief: as §1
# [42] = molecular target: Gal(b1-3)[Neu5Ac(a2-6)]GlcNAc(b1-4)Gal(b1-4)Glc
# Method in brief: as §1
# [43] = molecular target: Gal(b1-3)[Neu5Ac(b2-6)]GalNAc
# Method in brief: as §1
# [44] = molecular target: Gal(b1-4)Gal
# Method in brief: as §1
# [45] = molecular target: Gal(b1-4)GalNAc(a1-3)[Fuc(a1-2)]Gal(b1-4)GlcNAc
# Method in brief: as §1
binder,measurement,setting,value
B1,glycan array binding signal (z-score),[1],-0.589
same,glycan array binding signal (z-score),[2],0.442
same,glycan array binding signal (z-score),[3],-0.368
same,glycan array binding signal (z-score),[4],-0.721
same,glycan array binding signal (z-score),[5],0.233
same,glycan array binding signal (z-score),[6],-0.509
same,glycan array binding signal (z-score),[7],0.025
same,glycan array binding signal (z-score),[8],-0.263
same,glycan array binding signal (z-score),[9],-0.089
same,glycan array binding signal (z-score),[10],0.396
same,glycan array binding signal (z-score),[11],-0.423
same,glycan array binding signal (z-score),[12],-0.506
same,glycan array binding signal (z-score),[13],-0.204
same,glycan array binding signal (z-score),[14],0.123
same,glycan array binding signal (z-score),[15],-0.385
same,glycan array binding signal (z-score),[16],0.432
same,glycan array binding signal (z-score),[17],-0.051
same,glycan array binding signal (z-score),[18],-0.123
same,glycan array binding signal (z-score),[19],0.095
same,glycan array binding signal (z-score),[20],-0.177
same,glycan array binding signal (z-score),[21],-0.333
same,glycan array binding signal (z-score),[22],-0.706
same,glycan array binding signal (z-score),[23],0.605
same,glycan array binding signal (z-score),[24],1.91
same,glycan array binding signal (z-score),[25],1.46
same,glycan array binding signal (z-score),[26],-0.083
same,glycan array binding signal (z-score),[27],-0.467
same,glycan array binding signal (z-score),[28],-0.586
same,glycan array binding signal (z-score),[29],-0.714
same,glycan array binding signal (z-score),[30],-0.01
same,glycan array binding signal (z-score),[31],-0.249
same,glycan array binding signal (z-score),[32],-0.123
same,glycan array binding signal (z-score),[33],-0.189
same,glycan array binding signal (z-score),[34],-0.038
same,glycan array binding signal (z-score),[35],0.317
same,glycan array binding signal (z-score),[36],-0.016
same,glycan array binding signal (z-score),[37],-0.509
same,glycan array binding signal (z-score),[38],-0.569
same,glycan array binding signal (z-score),[39],0.433
same,glycan array binding signal (z-score),[40],-0.173
same,glycan array binding signal (z-score),[41],-0.262
same,glycan array binding signal (z-score),[42],0.155
same,glycan array binding signal (z-score),[43],-0.036
same,glycan array binding signal (z-score),[44],-0.275
same,glycan array binding signal (z-score),[45],-0.572

# Some of the entries so far, with tabs:
binder	measurement	setting	value
B1	glycan array binding signal (z-score)	[4]	-0.721
same	glycan array binding signal (z-score)	[9]	-0.089
same	glycan array binding signal (z-score)	[14]	0.123
same	glycan array binding signal (z-score)	[16]	0.432
same	glycan array binding signal (z-score)	[17]	-0.051
same	glycan array binding signal (z-score)	[18]	-0.123
same	glycan array binding signal (z-score)	[21]	-0.333
same	glycan array binding signal (z-score)	[22]	-0.706
same	glycan array binding signal (z-score)	[26]	-0.083
same	glycan array binding signal (z-score)	[34]	-0.038
same	glycan array binding signal (z-score)	[37]	-0.509
same	glycan array binding signal (z-score)	[40]	-0.173
same	glycan array binding signal (z-score)	[42]	0.155
